The source of these data is PubChem BioAssay AID493014 (National Center for Advancing Translational Sciences (NCATS), 2011).

This test in a line: qHTS Assay to Find Inhibitors of Chronic Active B-Cell Receptor Signaling. The settings on record: ABC-DLBCL IkBa-CBG/CBR reporter, luminescence ratio (green luciferase fused to IkBa over red control in TMD8 lymphoma cells), 4 h. Put shortly: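 Cell line TMD8 (human ABC DLBCL), stably expressing tet-inducible CBG68-IkBa fusion and CBR; IMDM/0.5% FBS; cpd up to 46 uM; dox induction, 4 h, 37C/5% CO2; dual luminescence; green/red ratio; MG132 control.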

The mark [1] stands for this setting: measured here: CBR red luminescence, cell number.
The mark [2] stands for this setting: measured here: IkBa-CBG green luminescence.

The structures appear in SMILES notation. The list shows a part of the results. These are further read-outs of the screen, such as a control signal, another cell line or another target. No call is given for them. Compounds called inactive in the main read-out are mostly missing here. The note in brackets gives the kind of curve behind each potency; many fits are weak.

Consider `Cc1cccn2c(=O)c(C=O)c(Cl)nc12`, for which the AC50 by setting is: under setting [1], 22.4 µM [falling, single point]; under setting [2], 12.6 µM [rising, partial curve, poor fit].
For the molecule `Cc1cccc(C)c1NC(=S)N1CCCN(Cc2ccc(F)cc2)C1`, the AC50 under setting [1] was 12.6 µM [falling, single point].
In the case of `COc1cc2ncnc(NCc3ccc(C)cc3)c2cc1OC`, the AC50 under setting [1] is 29.1 µM [falling, single point].
On the same count and under the same terms, with `COc1cccc(NC(=O)c2ccnc(N3CCC(C(=O)NCc4cc(OC)ccc4OC)CC3)c2)c1` the figure was 35.5 µM [falling, single point]; with `COc1ccc(-c2ccc(CCC(=O)O)n2NC(N)=O)cc1`, 11.2 µM [falling, partial curve]; with `COc1ccc(-c2csc3ncnc(Sc4nnnn4C)c23)cc1`, 6.51 µM [falling, full curve].
Consider `Cc1nc(Cl)sc1C(=O)Nc1ccc(C(C)(C)C)cc1`, for which, under setting [1], the AC50 is 1.26 µM [falling, partial curve, poor fit].
For the molecule `CCCCC1CCC(C(=O)Nc2ccccc2N2CCOCC2)CC1` (configuration not stated), under setting [1], the AC50 was 32.6 µM [rising, partial curve, poor fit].
`Cc1cc(NC(=O)/C=C/C(=O)N(CC(=O)NC2CCCC2)c2cccc3ccccc23)no1`: the AC50 under setting [2] is 14.1 µM [rising, partial curve, poor fit].
Take `Cc1cc(C)n2nc(C(=O)Nc3ccc4c(c3)CCC4)nc2n1`: under setting [1], the AC50 was 0.251 µM [rising, full curve, poor fit].
On the same count and under the same terms, next, `CC1=CC(c2ccc(Cl)cc2)n2nc(NC(=O)CCCC(=O)O)nc2N1` (configuration not stated): 0.631 µM [rising, partial curve, poor fit]; `CN(CC(=O)NCc1ccccc1)S(=O)(=O)c1cnc[nH]1`: 29.1 µM [rising, single point].
On the same count and under the same terms, next, `O=C(Nc1ccc2c(c1)OCO2)C(c1ccccc1)N1CCN(C(=O)c2ccco2)CC1` (configuration not stated): 1.46 µM [rising, partial curve, poor fit]; `C=CC[C@@H](CC(=O)N(CCO)Cc1ccccc1)C(=O)N[C@H](COC(=O)[C@@H](CC=C)Cc1ccc(F)cc1)Cc1ccccc1`: 29.1 µM [falling, single point].
The same measure, in the same setting: next, `CCN1C(=O)NC(c2cccnc2)C(C(=O)OC)=C1C` (configuration not stated): 2.31 µM [falling, partial curve, poor fit]; `COc1ccc(CNCCC(c2ccccc2)c2ccc(OC(C)C)cc2)cc1OC` (configuration not stated): 35.5 µM [falling, single point]; `COc1ccc(OC)c(N(CC(=O)NN=C2CCN(C)CC2)S(=O)(=O)c2ccccc2)c1`: 3.16 µM [falling, partial curve, poor fit].
On to `CC(=O)OC(C(=O)NCc1ccco1)c1cccnc1` (configuration not stated), for which, under setting [1], the AC50 was 5.8 µM [falling, single point].
On the same count and under the same terms, next, `COc1ccc(C(=O)OC2CCN(c3ncc(C(F)(F)F)cc3Cl)CC2)cc1`: 0.112 µM [rising, full curve, poor fit]; `CC1CCN(C(=O)c2cc3ccccc3o2)CC1`: 4.61 µM [rising, single point].
Still for that read-out and setting: next, `CC1c2ccccc2SC(CCCN(C)C)c2ccccc21` (configuration not stated): 18.4 µM [falling, single point].
On the same count and under the same terms, next, `COc1ccc(C(=O)NNC2=C(C(=O)C(F)(F)F)CCC2)cc1`: 2 µM [falling, full curve, poor fit].
For the molecule `O=C(Nc1ccc2c(c1)OCO2)c1ccccn1`, the AC50 under setting [1] is 20.6 µM [falling, single point].
In the case of `CC(=O)Nc1ccc(S(=O)(=O)NCc2cn3ccsc3n2)cc1`, under setting [1], the AC50 was 6.51 µM [falling, single point].
For the molecule `C=CCc1c(O)c(CC)cc2c(C)cc(=O)oc12`, under setting [1], the AC50 is 3.16 µM [rising, partial curve, poor fit].
Still for that read-out and setting: next, `COn1c(SCc2ccc(Cl)cc2)nc2ccccc2c1=O`: 7.08 µM [rising, partial curve]; `CN(C)CCCNC(=O)c1cc(C(=O)c2ccccc2)c[nH]1`: 1.12 µM [falling, full curve]; `COc1ccc(C(=O)c2sc(Nc3cccc(OC)c3)c(C(=O)Nc3cccc(C)c3C)c2N)cc1`: 5.8 µM [falling, partial curve, poor fit].
On the same count and under the same terms, with `O=C(NCc1ccco1)c1cc(C(=O)C2CCCCC2)c[nH]1` the figure was 15.8 µM [rising, partial curve, poor fit].
In the case of `COc1cc(/C=C2\S/C(=N/S(=O)(=O)c3ccccc3)NC2=O)c([N+](=O)[O-])cc1OC`, the AC50 was 20.6 µM [rising, single point] under setting [1] and 20.6 µM [falling, single point] under setting [2].
For the molecule `COC(=O)c1ccc(NCC(=O)c2ccccc2)cc1`, the AC50 under setting [1] is 1.58 µM [rising, partial curve, poor fit].
Still for that read-out and setting: with `COc1cccc(CNCC(O)(c2ccc(Cl)cc2)c2ccc(Cl)cc2)c1` the figure was 10 µM [falling, partial curve]; with `COC(=O)[C@H](CC(C)C)NC(=O)Cn1cnc2c(NCc3ccccc3)ncnc21`, 6.51 µM [rising, single point].
Same read-out and setting: next, `S=c1[nH]nc(-c2ccncc2)n1/N=C/c1cccc2ccccc12`: 0.92 µM [rising, full curve, poor fit]; `COc1ccc(CC(=O)NCc2ccc3c(c2)CCN3C(=O)c2ccc(Cl)cc2)cc1OC`: 20 µM [falling, single point]; `COc1cc(SC)ccc1C(=O)Nc1ccc(C)cc1`: 11.2 µM [falling, partial curve, poor fit].
For `O=C(N/N=C/c1cccnc1)c1cc(-c2ccccc2OCc2ccccc2)n[nH]1`, under setting [1], the AC50 was 11.2 µM [falling, partial curve].
Regarding `COc1ccccc1NS(=O)(=O)c1cc(NC(=O)c2cccs2)ccc1N1CCCCC1`, under setting [1], the AC50 is 23.1 µM [falling, partial curve, poor fit].
On the same count and under the same terms, with `c1ccc(-c2csc(Nc3ccccn3)n2)cc1` the figure was 2.24 µM [falling, full curve]; with `O=C(Cn1nc(Cc2cccnc2)c2ccccc2c1=O)Nc1ccc2c(c1)OCO2`, 23.1 µM [rising, single point].
Still for that read-out and setting: with `CCOCCCn1c(SCC(=O)Nc2cc(C(C)(C)C)nn2-c2ccccc2)nc2ccccc2c1=O` the figure was 25.9 µM [falling, single point]; with `Cc1cc(C)nc(N/N=C/c2cccc(Cl)c2)n1`, 14.1 µM [falling, single point].
Still for that read-out and setting: with `COc1ccc(NC(=O)CN2CCN(S(=O)(=O)c3ccc(Br)cc3)CC2)c(OC)c1` the figure was 0.562 µM [rising, partial curve, poor fit]; with `Nc1c2c(nc3sc4c(c13)CCCC4)-c1ccccc1CC2`, 2.82 µM [rising, partial curve, poor fit].
As to `O=c1c(-c2ccc(Cl)cc2)c[nH]n1-c1ccccc1`, the AC50 under setting [1] is 0.398 µM [falling, full curve].
On the same count and under the same terms, with `Cc1c(NC(=O)CSc2nnc(C(C)Oc3ccc(Cl)cc3)n2-c2ccccc2)c(=O)n(-c2ccccc2)n1C` (configuration not stated) the figure was 7.08 µM [falling, partial curve, poor fit].
Still for that read-out and setting: with `Cc1ccc(NC(=O)c2cc(-c3ccc(C)o3)nc3ccccc23)cc1` the figure was 17.8 µM [falling, single point]; with `O=C(/C=C/c1ccccc1)Nc1ccc(C(=O)N2CCCCC2)cc1`, 6.31 µM [falling, single point].
Still for that read-out and setting: with `O=c1c(-c2ccc(Cl)cc2)[n+]([O-])c2ccccc2n1O` the figure was 1.46 µM [rising, partial curve]; with `Cc1ccc(C(=O)Nc2ccc3c(c2)C(=O)NC3=O)cc1`, 0.891 µM [falling, full curve, poor fit].
As to `Cc1ccc(C(=O)Nc2nc(C)c(C(=O)Nc3ccc4c(c3)CCC4)s2)cc1`, the AC50 under setting [1] was 3.26 µM [rising, partial curve, poor fit] and the AC50 under setting [2] was 3.66 µM [falling, full curve].
For the molecule `COc1cccc(/C=C/C(=O)Nc2ccc3c(c2)OCCO3)c1OC`, the AC50 under setting [1] is 10 µM [falling, partial curve].
The same measure, in the same setting: with `Cc1cccc2c1cnn2C(=O)CCC(=O)NCC(C)c1ccccc1` (configuration not stated) the figure was 31.6 µM [rising, partial curve, poor fit]; with `Cc1ccc(C(=O)N2CCN(c3ccc(C(F)(F)F)cn3)CC2)c(C)c1`, 23.1 µM [rising, single point].
For `COCC(C)N=C1NN=C(c2cccs2)C(CC(=O)O)S1` (configuration not stated), under setting [1], the AC50 is 35.5 µM [rising, single point].
As to `Cc1ccccc1N=CC1=C(O)c2ccccc2C1=O`, the AC50 under setting [1] is 7.94 µM [falling, partial curve, poor fit].
Consider `CCOC(=O)NC(=O)CSc1ccc2ccccc2n1`, for which the AC50 under setting [1] was 22.4 µM [falling, single point].
The same measure, in the same setting: next, `O=C(O)c1cccc(N2CCCCS2(=O)=O)c1`: 13 µM [falling, partial curve, poor fit]; `CCOC(=O)c1ccc(NC(=O)COc2ccc(CNC3CCCCC3)cc2OC)cc1`: 12.6 µM [falling, single point].
For `COc1ccc(CC(=O)N/N=C(\C)CC(=O)Nc2cccc(F)c2)cc1`, the half-maximal activity concentration (AC50) under setting [1] was 20 µM [falling, single point].
Still for that read-out and setting: next, `O=C(CNS(=O)(=O)/C=C/c1ccccc1)OC1CCOC1=O` (configuration not stated): 35.5 µM [rising, partial curve, poor fit].
With `CCc1ccc(NC(=O)c2cnn(-c3ccccc3)c2C2CCNCC2)cc1`, the concentration at half-maximal activity (AC50) by setting is: under setting [1], 14.1 µM [falling, partial curve, poor fit]; under setting [2], 20 µM [falling, partial curve, poor fit].
With `NC(=O)c1ccc(NC(=O)COC(=O)c2ccc3c(c2)OCCO3)cc1`, the AC50 under setting [1] was 5.62 µM [rising, single point].
